Measured values reported in paper PMC12508481.
These are yes or no findings as the source states them, for the method shown. In cells and extracts the contact can be indirect. Here binding means that the protein was enriched with, or labelled near, the bait; the list need not be complete.

Chains of the proteins cited; added tags and fusions are not shown.
UniProt Q9UJV9: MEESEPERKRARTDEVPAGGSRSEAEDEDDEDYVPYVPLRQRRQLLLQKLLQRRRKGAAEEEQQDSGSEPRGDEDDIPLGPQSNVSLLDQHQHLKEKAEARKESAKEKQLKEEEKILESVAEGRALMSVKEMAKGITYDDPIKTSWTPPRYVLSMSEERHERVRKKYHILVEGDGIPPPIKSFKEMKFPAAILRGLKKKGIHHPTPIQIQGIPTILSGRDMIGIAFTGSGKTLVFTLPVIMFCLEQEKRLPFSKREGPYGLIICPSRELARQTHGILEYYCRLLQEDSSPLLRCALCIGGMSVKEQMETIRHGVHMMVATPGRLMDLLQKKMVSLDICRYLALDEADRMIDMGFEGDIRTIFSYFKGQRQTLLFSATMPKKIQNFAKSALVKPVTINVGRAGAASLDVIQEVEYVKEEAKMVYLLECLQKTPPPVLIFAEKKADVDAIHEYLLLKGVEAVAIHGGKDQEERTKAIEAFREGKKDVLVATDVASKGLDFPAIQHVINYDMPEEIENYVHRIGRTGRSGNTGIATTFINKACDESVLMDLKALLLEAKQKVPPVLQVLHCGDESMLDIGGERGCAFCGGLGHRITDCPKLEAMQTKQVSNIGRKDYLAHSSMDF

T1: CGG triplet repeat binding protein 1 (human (endogenous in U-2OS)) (UniProt Q9UFW8)
T1 sequence: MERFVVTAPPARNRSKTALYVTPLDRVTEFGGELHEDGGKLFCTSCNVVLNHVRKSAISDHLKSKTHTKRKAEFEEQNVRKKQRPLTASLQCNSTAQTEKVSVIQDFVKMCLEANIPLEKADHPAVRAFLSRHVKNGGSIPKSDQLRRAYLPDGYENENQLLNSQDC


These molecules were tested against T1, CGG triplet repeat binding protein 1 (human (endogenous in U-2OS)) (assay: affinity purification with mass spectrometry; IP of endogenous CGGBP1 from untreated U-2OS Tet-ON lysate (25 mM Tris-HCl pH 7.4, 150 mM KCl, 1 mM MgCl2, 10% glycerol, 0.1% Triton X-100) with a mix of two anti-CGGBP1 antibodies on Protein G magnetic beads, 4 °C; control IgG-IP; LC-MS/MS, label-free quantification, N = 3).

| binding | Molecule |
| --- | --- |
| binds | DDX41, ATP-dependent DEAD-box DNA:RNA helicase (from UniProt Q9UJV9 1-622) (enzyme) |
| binds | MRM1 (protein, UniProt Q6IN84 21-353) SHAARHGERPGGEELSRLLLDDLVPTSRLELLFGMTPCLLALQAARRSVARLLLQAGKAGLQGKRAELLRMAEARDIPVLRPRRQKLDTMCRYQVHQGVCMEVSPLRPRPWREAGEASPGDDPQQLWLVLDGIQDPRNFGAVLRSAHFLGVDKVITSRRNSCPLTPVVSKSSAGAMEVMDVFSTDDLTGFLQTKAQQGWLVAGTVGCPSTEDPQSSEIPIMSCLEFLWERPTLLVLGNEGSGLSQEVQASCQLLLTILPRRQLPPGLESLNVSVAAGILLHSICSQRKGFPTEGERRQLLQDPQEPSARSEGLSMAQHPGLSSGPEKERQNEG |
| binds | DDX28, RNA:DNA helicase of the DEAD-box family (enzyme, UniProt Q9NUL7 1-540) MALTRPVRLFSLVTRLLLAPRRGLTVRSPDEPLPVVRIPVALQRQLEQRQSRRRNLPRPVLVRPGPLLVSARRPELNQPARLTLGRWERAPLASQGWKSRRARRDHFSIERAQQEAPAVRKLSSKGSFADLGLEPRVLHALQEAAPEVVQPTTVQSSTIPSLLRGRHVVCAAETGSGKTLSYLLPLLQRLLGQPSLDSLPIPAPRGLVLVPSRELAQQVRAVAQPLGRSLGLLVRDLEGGHGMRRIRLQLSRQPSADVLVATPGALWKALKSRLISLEQLSFLVLDEADTLLDESFLELVDYILEKSHIAEGPADLEDPFNPKAQLVLVGATFPEGVGQLLNKVASPDAVTTITSSKLHCIMPHVKQTFLRLKGADKVAELVHILKHRDRAERTGPSGTVLVFCNSSSTVNWLGYILDDHKIQHLRLQGQMPALMRVGIFQSFQKSSRDILLCTDIASRGLDSTGVELVVNYDFPPTLQDYIHRAGRVGRVGSEVPGTVISFVTHPWDVSLVQKIELAARRRRSLPGLASSVKEPLPQAT |
